Test results taken from the supplement of paper PMC8728848.
This is one part of the list.

Tests used:
Assay in all cases: glycan array binding signal (z-score within array); higher = stronger binding
Conditions in all cases: glycan notation: IUPAC condensed, linker removed
[1] = molecular target: Gal(b1-4)GlcNAc(b1-3)Gal(b1-4)Glc
Outline: (§1)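 From the Consortium for Functional Glycomics database, 3228 arrays were curated, keeping only those whose protein sequence was available. Binding is given as a within-array Z-score averaged across arrays sharing a protein sequence and across linkers. Negative Z-scores can be read as non-binding.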

[2] = molecular target: Gal(b1-4)GlcNAc(b1-3)Gal(b1-4)GlcNAc
Outline: as §1

[3] = molecular target: Gal(b1-4)GlcNAc(b1-3)Gal(b1-4)GlcNAc(b1-2)Man(a1-3)[Gal(b1-4)GlcNAc(b1-3)Gal(b1-4)GlcNAc(b1-2)Man(a1-6)]Man(b1-4)GlcNAc(b1-4)GlcNAc
Outline: as §1

[4] = molecular target: Gal(b1-4)GlcNAc(b1-3)Gal(b1-4)GlcNAc(b1-2)Man(a1-3)[Gal(b1-4)GlcNAc(b1-3)Gal(b1-4)GlcNAc(b1-2)Man(a1-6)]Man(b1-4)GlcNAc(b1-4)[Fuc(a1-6)]GlcNAc
Outline: as §1

[5] = molecular target: Gal(b1-4)GlcNAc(b1-3)Gal(b1-4)GlcNAc(b1-2)[Gal(b1-4)GlcNAc(b1-3)Gal(b1-4)GlcNAc(b1-6)]Man(a1-6)[Gal(b1-4)GlcNAc(b1-3)Gal(b1-4)GlcNAc(b1-2)Man(a1-3)]Man(b1-4)GlcNAc(b1-4)GlcNAc
Outline: as §1

[6] = molecular target: Gal(b1-4)GlcNAc(b1-3)Gal(b1-4)GlcNAc(b1-2)[Gal(b1-4)GlcNAc(b1-3)Gal(b1-4)GlcNAc(b1-6)]Man(a1-6)[Gal(b1-4)GlcNAc(b1-3)Gal(b1-4)GlcNAc(b1-2)Man(a1-3)]Man(b1-4)GlcNAc(b1-4)[Fuc(a1-6)]GlcNAc
Outline: as §1

[7] = molecular target: Gal(b1-4)GlcNAc(b1-3)Gal(b1-4)GlcNAc(b1-3)Gal(b1-4)GlcNAc
Outline: as §1

[8] = molecular target: Gal(b1-4)GlcNAc(b1-3)Gal(b1-4)GlcNAc(b1-3)Gal(b1-4)GlcNAc(b1-2)Man(a1-3)[Gal(b1-4)GlcNAc(b1-3)Gal(b1-4)GlcNAc(b1-3)Gal(b1-4)GlcNAc(b1-2)Man(a1-6)]Man(b1-4)GlcNAc(b1-4)GlcNAc
Outline: as §1

[9] = molecular target: Gal(b1-4)GlcNAc(b1-3)Gal(b1-4)GlcNAc(b1-3)Gal(b1-4)GlcNAc(b1-2)Man(a1-3)[Gal(b1-4)GlcNAc(b1-3)Gal(b1-4)GlcNAc(b1-3)Gal(b1-4)GlcNAc(b1-2)Man(a1-6)]Man(b1-4)GlcNAc(b1-4)[Fuc(a1-6)]GlcNAc
Outline: as §1

[10] = molecular target: Gal(b1-4)GlcNAc(b1-3)Gal(b1-4)GlcNAc(b1-3)Gal(b1-4)GlcNAc(b1-2)[Gal(b1-4)GlcNAc(b1-3)Gal(b1-4)GlcNAc(b1-3)Gal(b1-4)GlcNAc(b1-6)]Man(a1-6)[Gal(b1-4)GlcNAc(b1-3)Gal(b1-4)GlcNAc(b1-3)Gal(b1-4)GlcNAc(b1-2)Man(a1-3)]Man(b1-4)GlcNAc(b1-4)[Fuc(a1-6)]GlcNAc
Outline: as §1

[11] = molecular target: Gal(b1-4)GlcNAc(b1-3)Gal(b1-4)GlcNAc(b1-3)Gal(b1-4)GlcNAc(b1-3)Gal(b1-4)GlcNAc(b1-2)Man(a1-3)[Gal(b1-4)GlcNAc(b1-3)Gal(b1-4)GlcNAc(b1-3)Gal(b1-4)GlcNAc(b1-3)Gal(b1-4)GlcNAc(b1-2)Man(a1-6)]Man(b1-4)GlcNAc(b1-4)GlcNAc
Outline: as §1

[12] = molecular target: Gal(b1-4)GlcNAc(b1-3)Gal(b1-4)GlcNAc(b1-3)Gal(b1-4)GlcNAc(b1-3)Gal(b1-4)GlcNAc(b1-2)Man(a1-3)[Gal(b1-4)GlcNAc(b1-3)Gal(b1-4)GlcNAc(b1-3)Gal(b1-4)GlcNAc(b1-3)Gal(b1-4)GlcNAc(b1-2)Man(a1-6)]Man(b1-4)GlcNAc(b1-4)[Fuc(a1-6)]GlcNAc
Outline: as §1

[13] = molecular target: Gal(b1-4)GlcNAc(b1-3)Gal(b1-4)GlcNAc(b1-3)Gal(b1-4)GlcNAc(b1-3)Gal(b1-4)GlcNAc(b1-2)[Gal(b1-4)GlcNAc(b1-3)Gal(b1-4)GlcNAc(b1-3)Gal(b1-4)GlcNAc(b1-3)Gal(b1-4)GlcNAc(b1-6)]Man(a1-6)[Gal(b1-4)GlcNAc(b1-3)Gal(b1-4)GlcNAc(b1-3)Gal(b1-4)GlcNAc(b1-3)Gal(b1-4)GlcNAc(b1-2)Man(a1-3)]Man(b1-4)GlcNAc(b1-4)[Fuc(a1-6)]GlcNAc
Outline: as §1

[14] = molecular target: Gal(b1-4)GlcNAc(b1-3)Gal(b1-4)GlcNAc(b1-3)Gal(b1-4)GlcNAc(b1-3)Gal(b1-4)GlcNAc(b1-3)Gal(b1-4)GlcNAc(b1-2)Man(a1-3)[Gal(b1-4)GlcNAc(b1-3)Gal(b1-4)GlcNAc(b1-3)Gal(b1-4)GlcNAc(b1-3)Gal(b1-4)GlcNAc(b1-3)Gal(b1-4)GlcNAc(b1-2)Man(a1-6)]Man(b1-4)GlcNAc(b1-4)GlcNAc
Outline: as §1

[15] = molecular target: Gal(b1-4)GlcNAc(b1-3)Gal(b1-4)GlcNAc(b1-3)Gal(b1-4)GlcNAc(b1-3)Gal(b1-4)GlcNAc(b1-3)Gal(b1-4)GlcNAc(b1-2)Man(a1-3)[Gal(b1-4)GlcNAc(b1-3)Gal(b1-4)GlcNAc(b1-3)Gal(b1-4)GlcNAc(b1-3)Gal(b1-4)GlcNAc(b1-3)Gal(b1-4)GlcNAc(b1-2)Man(a1-6)]Man(b1-4)GlcNAc(b1-4)[Fuc(a1-6)]GlcNAc
Outline: as §1

[16] = molecular target: Gal(b1-4)GlcNAc(b1-3)Gal(b1-4)GlcNAc(b1-3)Gal(b1-4)GlcNAc(b1-3)Gal(b1-4)GlcNAc(b1-3)Gal(b1-4)GlcNAc(b1-2)[Gal(b1-4)GlcNAc(b1-3)Gal(b1-4)GlcNAc(b1-3)Gal(b1-4)GlcNAc(b1-3)Gal(b1-4)GlcNAc(b1-3)Gal(b1-4)GlcNAc(b1-6)]Man(a1-6)[Gal(b1-4)GlcNAc(b1-3)Gal(b1-4)GlcNAc(b1-3)Gal(b1-4)GlcNAc(b1-3)Gal(b1-4)GlcNAc(b1-3)Gal(b1-4)GlcNAc(b1-2)Man(a1-3)]Man(b1-4)GlcNAc(b1-4)[Fuc(a1-6)]GlcNAc
Outline: as §1

[17] = molecular target: Gal(b1-4)GlcNAc(b1-3)Gal(b1-4)GlcNAc(b1-3)Gal(b1-4)GlcNAc(b1-3)Gal(b1-4)GlcNAc(b1-3)Gal(b1-4)GlcNAc(b1-3)Gal(b1-4)GlcNAc(b1-2)Man(a1-3)[Gal(b1-4)GlcNAc(b1-3)Gal(b1-4)GlcNAc(b1-3)Gal(b1-4)GlcNAc(b1-3)Gal(b1-4)GlcNAc(b1-3)Gal(b1-4)GlcNAc(b1-3)Gal(b1-4)GlcNAc(b1-2)Man(a1-6)]Man(b1-4)GlcNAc(b1-4)GlcNAc
Outline: as §1

[18] = molecular target: Gal(b1-4)GlcNAc(b1-3)Gal(b1-4)GlcNAc(b1-3)GalNAc
Outline: as §1

[19] = molecular target: Gal(b1-4)GlcNAc(b1-3)Gal(b1-4)GlcNAc(b1-3)[Gal(b1-4)GlcNAc(b1-3)Gal(b1-4)GlcNAc(b1-6)]GalNAc
Outline: as §1

B1: GS13971A-bth-447-22-447 (Bacteroides thetaiotaomicron) (protein)
chain: EDVDNERSKGMFSASQSGFSTIEVYDLGPLNKIDLSIAKAGLEDTGGTVTFSVEQSLLDSLNNADGTSYQLLPPECYTIENATYSVSPGGDRRVTGGSLVYDPHKIYNLCGFDELKYVLPLRVSSTGTPMNSDRTATLYGFIVKEAIVRLASTGGDFVVEGGTTTSPMNLDTEISFENEWDLTTSFATKGADYVDNYNSANSTYYIPLPSDFYTLPDVTIAKGKTTGGSAISLLGETLPPGNYLLPVSLGGLSGQGDASINIDKETVANYFVIKQGGPINRDHWTVTANTEEKTGEVSAAYPHNGQTISLIDGEINTFWHSKWQGGEVAPPYEIILDMGKENSVSQLGLIARQNALTSMNLEIYAGDDGETWNLIGKYFFDGSIKTEQMVPVKACDARWIRIYIPTLGSGSSVGHLAEIYVYGTDK
**Q.** Which “glycan array binding signal (z-score)” value [1] does the source give for B1 here?
**A.** The value was 0.593.

**Q.** What about the “glycan array binding signal (z-score)” value [2] of the same binder?
**A.** Its value is -1.12.

**Q.** What about the “glycan array binding signal (z-score)” value [3] of the same binder?
**A.** Its value is 0.856.

**Q.** What about the “glycan array binding signal (z-score)” value [4] of the same binder?
**A.** Its value is 0.359.

**Q.** And the “glycan array binding signal (z-score)” value [5]?
**A.** Its value is 0.928.

**Q.** And the “glycan array binding signal (z-score)” value [6]?
**A.** Its value is 2.62.

**Q.** What about the “glycan array binding signal (z-score)” value [7] of the same binder?
**A.** Its value is -0.169.

**Q.** And the “glycan array binding signal (z-score)” value [8]?
**A.** Its value is 1.88.

**Q.** What about the “glycan array binding signal (z-score)” value [9] of the same binder?
**A.** The value was -0.389.

**Q.** What about the “glycan array binding signal (z-score)” value [10] of the same binder?
**A.** Its value is 0.617.

**Q.** What about the “glycan array binding signal (z-score)” value [11] of the same binder?
**A.** Its value is -0.267.

**Q.** What about the “glycan array binding signal (z-score)” value [12] of the same binder?
**A.** The value was 2.21.

**Q.** What about the “glycan array binding signal (z-score)” value [13] of the same binder?
**A.** The value was 2.31.

**Q.** And the “glycan array binding signal (z-score)” value [14]?
**A.** Its value is 1.68.

**Q.** And the “glycan array binding signal (z-score)” value [15]?
**A.** The value was 2.91.

**Q.** And the “glycan array binding signal (z-score)” value [16]?
**A.** Its value is 1.41.

**Q.** And the “glycan array binding signal (z-score)” value [17]?
**A.** The value was 2.06.

**Q.** What about the “glycan array binding signal (z-score)” value [18] of the same binder?
**A.** The value was -0.708.

**Q.** And the “glycan array binding signal (z-score)” value [19]?
**A.** The value was 1.02.
